Test results: US10300107B2, “Compositions and methods for CaMKII inhibitors and uses thereof” (THE REGENTS OF THE UNIVERSITY OF COLORADO, priority 2007, dated 2019)
Some of these results come from one statement about several compounds together.

Test system: CaMKII
Type: biochemical
Conditions: Ala scan, compared to CN19
Procedure: CaMKII activity assays. Standard CaMKII assays were done for 1 min at 30° C. previously described, with 20 nM CaMKII (subunit, not holoenzyme concentration), 50 mM PIPES pH 7.2, 0.1 mg/ml BSA, 10 mM MgCl2, 100 μM [γ-^32P] ATP (˜1 Ci/mmol), 1 mM CaCl2, 1-2 μM CaM, and 30-60 μM AC2 peptide (or syntide2). The reactions were spotted onto Whatman P81 phosphocellulose paper rectangles (˜2×2.5 cm). To remove free radioactivity, the paper rectangles were rinsed and washed for 30 min under agitation in 0.5% phosphoric acid or water. […] Radioactivity of the bound peptides was quantified in a Beckman 6000TA scintillation counter by the Cherenkov method. Any changes of the standard protocol were done as indicated. For assays of the GFP-CaMKIIα mutants, kinase amounts were normalized by GFP fluorescence in the extract, and total protein was adjusted with Cos-7 extracts.

With “R11A: CN19 point mutant R11A (KRPPKLGQIGASKRVVIED)” the “reduction of CN19 inhibition potency” value was “more than 3 fold”.
